The structures given here were assigned with low confidence; some may be wrong.
Key:
PDK1 [1] = target: T1, PDK1 (Homo sapiens, UniProt O15530); assay: Cellular testing of PDK1 kinase inhibitors in PC3 cells (Luminex, phospho-T308-PKB); conditions: read-out: IC50 [PDK1] cellular, 30 min, serum-free
Procedure: Method for the Cellular Testing of PDK1 Kinase Inhibitors in PC3 Cells.
The cellular assay for the determination of the PDK1 kinase activity is carried out as a Luminex assay in the 96-well format. PC3 cells are sown at 20,000 cells per well in 100 μl of medium (45% of […]/45% of Ham's F12/10% of FCS) and incubated on the following day for 30 min with a serial dilution of the test substance (7 concentrations) under serum-free conditions. The cells are subsequently lysed using 90 μl of lysis buffer (20 mM tris/HCl pH 8.0, 150 mM NaCl, 1% of NP40, 10% of glycerol, 1% of phosphatase inhibitor I, 1% of phosphatase inhibitor II, 0.1% of protease inhibitor cocktail III, 0.01% of benzonase) per well, and the lysates are separated off from insoluble cell constituents by means of centrifugation through a 96-well filter plate (0.65 μm). The lysates are incubated overnight at 4° C. with shaking with Luminex beads to which an anti-total PKB antibody is coupled. The detection is carried out on the following day by addition of a phospho-T308-PKB antibody and a species-specific peroxidase-labelled secondary antibody. […] The values of the batches treated with test substance are calculated therefrom as percentage of control, and IC50 values are determined by means of RS 1.

Chains of the proteins cited; added tags and fusions are not shown. Residues count along the entry.
UniProt O15530, whole entry: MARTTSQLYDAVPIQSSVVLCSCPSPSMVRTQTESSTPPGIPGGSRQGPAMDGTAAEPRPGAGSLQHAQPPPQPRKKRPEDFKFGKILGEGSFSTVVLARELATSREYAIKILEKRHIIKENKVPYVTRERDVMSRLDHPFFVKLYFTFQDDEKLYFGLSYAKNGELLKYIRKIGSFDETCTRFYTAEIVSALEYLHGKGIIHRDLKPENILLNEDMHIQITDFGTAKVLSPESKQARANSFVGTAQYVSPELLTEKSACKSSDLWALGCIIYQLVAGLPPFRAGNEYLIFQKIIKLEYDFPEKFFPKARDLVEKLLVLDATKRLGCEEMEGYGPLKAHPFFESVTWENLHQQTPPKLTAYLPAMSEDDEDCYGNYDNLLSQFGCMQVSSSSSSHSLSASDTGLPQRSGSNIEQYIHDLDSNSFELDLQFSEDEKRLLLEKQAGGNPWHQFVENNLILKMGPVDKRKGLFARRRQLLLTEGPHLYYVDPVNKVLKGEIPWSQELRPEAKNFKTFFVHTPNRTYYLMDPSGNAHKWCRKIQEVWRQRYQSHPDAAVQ
UniProt O15530, 51-556 limits assumed: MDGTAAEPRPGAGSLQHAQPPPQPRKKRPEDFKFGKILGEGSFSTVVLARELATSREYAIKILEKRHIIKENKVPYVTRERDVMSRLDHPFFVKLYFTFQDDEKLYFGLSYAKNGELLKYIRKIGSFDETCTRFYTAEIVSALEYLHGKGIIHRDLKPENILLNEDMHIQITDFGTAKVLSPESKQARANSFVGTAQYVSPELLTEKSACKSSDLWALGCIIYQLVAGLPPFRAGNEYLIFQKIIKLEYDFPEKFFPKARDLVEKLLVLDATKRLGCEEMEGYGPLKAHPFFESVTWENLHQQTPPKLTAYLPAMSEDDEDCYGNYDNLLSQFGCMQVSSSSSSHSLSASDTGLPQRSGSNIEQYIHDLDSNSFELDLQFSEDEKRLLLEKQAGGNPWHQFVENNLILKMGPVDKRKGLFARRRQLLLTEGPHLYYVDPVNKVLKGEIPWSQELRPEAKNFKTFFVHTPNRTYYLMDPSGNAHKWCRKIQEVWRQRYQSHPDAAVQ

PDK1 [2] = target: T1, PDK1; assay: Test for the inhibition of PDK1 (flashplate, 33P-ATP); conditions: read-out: IC50 [PDK1] biochemical; His6-PDK1 (1-50) 3.4 nM, 4 μM ATP, 30° C., 60 min
Procedure: The experimental batches are carried out in a flashplate system with 384 wells/microtitration plate.
In each case, the PDK1 sample His6-PDK1 (1-50) (3.4 nM), the PDK1 substrate biotin-bA-bA-[…] (400 nM), 4 μM ATP (with 0.2μ Ci of ^33P-ATP/well) and the test substance in 50 μl of conventional experimental solution per well are incubated at 30° C. for 60 min. The test substances are employed in corresponding concentrations (if desired in a dilution series). The control is carried out without test substance. The reaction is stopped using standard methods and washed. The activity of the kinase is measured via the incorporated radioactivity in top count. In order to determine the non-specific kinase reaction (blank value), the experimental batches are carried out in the presence of 100 nM staurosporin.
The radioactivity (decompositions per minute) of the blank value (no use of test substance in the presence of staurosporin) is subtracted from all other radioactivity values. The controls (kinase activity without test substance) are set equal to 100 percent and all other radioactivity values (after subtracting the blank value) are expressed set in relation thereto (for example in % of the control).
IC50 values (50% inhibition) are determined with the aid of statistics programmes, such as, for example, RS1.

Structure (SMILES): Cn1cc(-c2cnc3[nH]cc(-c4nc(C(C)(O)c5ccccc5F)no4)c3c2)cn1 (centres unmarked)
- IC50 (PDK1 [1]): 1000 to 10000 nM
- IC50 (PDK1 [2]): 0.5 to 1000 nM
